Measurements reported in the supplement of paper PMC7125110.
± gives the standard error. Many of these values have a large error.

B1: glmS ribozyme (parent)
chain: AUAAAAGCGCCAGAACUACAGAAAUGUAGUUGACGAGGAGGAGGUUUAUCGAAUUUUCGGCGGAUGCCUCCAAA

Variants of: B1
Assay: KM; higher = weaker cofactor use; RNA array
Conditions: with glucosamine-6-phosphate
In short: (§1)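 Weighted Michaelis–Menten fits across concentrations supplied kcat and KM, based on kobs from one- or two-exponential decay fits to normalised per-tile medians. The data came from barcoded ribozyme variants transcribed in situ by E. coli RNA polymerase on sequenced MiSeq chips and tracked at 37 °C by a hybridised Cy3 probe. Glucosamine-6-phosphate (40 μM to 10 mM) in HEPES/KCl/Mg(OAc)2 buffer was flowed in.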
AUAAAAGCGCCAGCACUACAGAAAUGUAGUUGACGAAGAGGAGGUUUAUCGAAUUUUCGGCGGAUGCCUCCAAA [A14C G37A] was tested, and the KM was 2490 ± 1300 µM.
In the case of AUAAAAGCGCCAGCACUACAGAAAUGUAGUUGACGAGGAGUAGGUUUAUCGAAUUUUCGGCGGAUGCCUCCAAA [A14C G41U], the KM is reported as 1570 ± 810 µM.
Work on AUAAAAGCGCCAGCACUACAGAAAUGUAGUUGACGAGGAGGAGAUUUAUCGAAUUUUCGGCGGAUGCCUCCAAA [A14C G44A] yielded a KM of 197000 ± 56000 µM.
With AUAAAAGCGCCAGGACUACAGAAAUGUAGUUGACGAGGAGGAGGUUUAUCGACUUUUCGGCGGAUGCCUCCAAA [A14G A53C] the KM was 1450 ± 1100 µM.
In the case of AUAAAAGCGCCAGGACUACAGAAAUGUAGUUGACGAGGAGGAGGUUUAUCGAAUUUUCGGCGGGUGCCUCCAAA [A14G A64G], the KM is reported as 2030 ± 810 µM.
AUAAAAGCGCCAGGACUACAGAAAUGUAGUUGACGAGGAGGAGGUUUAUCGAAUUUUCGGCGGAUGCCUCGAAA [A14G C71G] showed a KM of 55.3 ± 55 µM.
Work on AUAAAAGCGCCAGGACUACAGAAAUGUAGUUCACGAGGAGGAGGUUUAUCGAUUUUUCGGCGGAUGCCUCCAAA [A14G G32C A53U] yielded a KM of 5490 ± 3500 µM.
AUAAAAGCGCCAGGACUACAGAAAUGUAGUUGACGAUGAGGAGGUUUAUCGAAUUUUCGGCGGAUGCCUCCAAA [A14G G37U] was tested, and the KM was 1680 ± 470 µM.
AUAAAAGCGCCAGGACUACAGAAAUGUAGUUGACGAGGACGAGGUUUAUCGAAUUUUCGGCGGAUGCCUCCAAA [A14G G40C] showed a KM of 2750 ± 1400 µM.
AUAAAAGCGCCAGGACUACAGAAAUGUAGUUGACGAGGAGCAGGUUUAUCGAAUUUUCGGCGGAUGCCUCCAAA [A14G G41C] showed a KM of 3070 ± 1800 µM.
AUAAAAGCGCCAGGACUACAGAAAUGUAGUUGACGAGGAGGAGAUUUAUCGAAUUUUCGGCGGAUGCCUCCAAA [A14G G44A] was tested, and the KM was 3640 ± 2600 µM.
For AUAAAAGCGCCAGGACUACAGAAAUGUAGUUGACGAGGAGGAGGUUUAUCGAAUUUUCGGCGUAUGCCUCCAAA [A14G G63U], the KM was 1390 ± 800 µM.
For AUAAAAGCGCCAGGACUACAGAAAUGUAGUUGACGAGGAGGAGGCUUAUCGAAUUUUCGGCGGAUGCCUCCAAA [A14G U45C], the KM was 772 ± 420 µM.
Work on AUAAAAGCGCCAGGACUACAGAAAUGUAGUUGACGAGGAGGAGGUCUAUCGAAUUUUCGGCGGAUGCCUCCAAA [A14G U46C] yielded a KM of 579 ± 390 µM.
Work on AUAAAAGCGCCAGUGCUACAGAAAUGUAGUUGACGAGGAGGAAGUUUAUCGAAUUUUCGGCGGAUGCCUCCAAA [A14U A15G G43A] yielded a KM of 12500 ± 10000 µM.
AUAAAAGCGCCAGUACUACAGAAAUGUAGUUGACGAGGUGGAGGUUUAUCGAAUUUUCGGCGGAUGCCUCCAAA [A14U A39U] was tested, and the KM was 3050 ± 1200 µM.
Work on AUAAAAGCGCCAGUACUACAGAAAUGUAGUUGACGAGGAGGAGGUUUAUCGGAUUUUCGGCGGAUGCCUCCAAA [A14U A52G] yielded a KM of 2840 ± 1300 µM.
AUAAAAGCGCCAGUACUACAGAAAUGUAGUUGACGAGGAGGAGGUUUAUCGAAUUUUAGGCGGAUGCCUCCAAA [A14U C58A] was tested, and the KM was 2220 ± 300 µM.
AUAAAAGCGCCAGUACUACAGAAAUGUAGUUCACGAGGAGGAGGUUUAUCGAAUUUUCGGCGGAUGCCUCCAAA [A14U G32C] was tested, and the KM was 3050 ± 580 µM.
AUAAAAGCGCCAGUACUACAGAAAUGUAGUGGACGAGGCGGAGGUUUAUCGAAUUUUCGGCGGAUGCCUCCAAA [A14U U31G A39C] gave a KM of 4360 ± 1700 µM.
With AUAAAAGCGCCAGACCUACAGAAAUGUAGUUGACGAGGAGGGGGUUUAUCGACUUUUCGGCGGAUGCCUCCAAA [A15C A42G A53C] the KM was 3990 ± 2900 µM.
AUAAAAGCGCCAGACCUACAGAAAUGUAGUUGACGAGGAGGAGGUUUUUCGAAUUUUCGGCGGAUGCCUCCAAA [A15C A48U] gave a KM of 2840 ± 1100 µM.
AUAAAAGCGCCAGACAUACAGAAAUGUAGUUGACGAGGAGGAGGUUUAUCGAAUUUUCGGCGGAUGCCUCCAAA [A15C C16A] gave a KM of 2030 ± 1100 µM.
In the case of AUAAAAGCGCCAGACAUACAGAAAUGUAGUUGACGAGGAGGAGGUUUAUCGAAUUUUCGGCUGAUGCCUCCAAA [A15C C16A G62U], the KM is reported as 657 ± 420 µM.
For AUAAAAGCGCCAGACCUACAGAAAUGUAGUUGACGAGGAGGAGGUUUAUCGAAUUUUCGGUGGAUGCCUCCAAA [A15C C61U], the KM was 5200 ± 4900 µM.
With AUAAAAGCGCCAGACCUACAGAAAUGUAGUUCACGAGGAGGAGGUUUAUCGACUUUUCGGCGGAUGCCUCCAAA [A15C G32C A53C] the KM was 235 ± 150 µM.
With AUAAAAGCGCCAGACCUACAGAAAUGUAGUUGACGAGGAGCAGGUUUAUCGAAUUUUCGGCGGAUGCCUCCAAA [A15C G41C] the KM was 1850 ± 570 µM.
Work on AUAAAAGCGCCAGACCUACAGAAAUGUAGUUGACGAGGAGGAGUUUUAUCGAAUUUUCGGCGGAUGCCUCCAAA [A15C G44U] yielded a KM of 924 ± 540 µM.
In the case of AUAAAAGCGCCAGACCUACAGAAAUGUAGUUGACGAGGAGGAGGUUUAUCUAAUUUUCGGCGGAUGCCUCCAAA [A15C G51U], the KM is reported as 34.2 ± 33 µM.

Variants of: B1
Assay: self-cleavage kobs at 40 uM GlcN6P; higher = faster cleavage; RNA array
Conditions: with glucosamine-6-phosphate
In short: as §1
AUAAAAGCGCCAGCACUACAGAAAUGUAGUUGACGAGGAGUAGGUUUAUCGAAUUUUCGGCGGAUGCCUCCAAA [A14C G41U] was tested, and the “self-cleavage kobs at 40 uM GlcN6P” value was 2.28e-05 ± 1.5e-05 s⁻¹.
AUAAAAGCGCCAGUACUACAGAAAUGUAGUUGACGAGGAGGAGGUUUAUCGGAUUUUCGGCGGAUGCCUCCAAA [A14U A52G] was tested, and the “self-cleavage kobs at 40 uM GlcN6P” value was 1.88e-05 ± 1.8e-05 s⁻¹.
With AUAAAAGCGCCAGACCUACAGAAAUGUAGUUGACGAGGAGGGGGUUUAUCGACUUUUCGGCGGAUGCCUCCAAA [A15C A42G A53C] the “self-cleavage kobs at 40 uM GlcN6P” value was 1.96e-05 ± 1.8e-05 s⁻¹.

Variants of: B1
Assay: self-cleavage kobs at 2500 uM GlcN6P; higher = faster cleavage; RNA array
Conditions: with glucosamine-6-phosphate
In short: as §1
AUAAAAGCGCCAGGACUACAGAAAUGUAGUUGACGAGGAGGAGGUUUAUCGAAUUUUCGGCGGGUGCCUCCAAA [A14G A64G] was tested, and the “self-cleavage kobs at 2500 uM GlcN6P” value was 0.0543 ± 0.038 s⁻¹.
For AUAAAAGCGCCAGACCUACAGAAAUGUAGUUGACGAGGAGCAGGUUUAUCGAAUUUUCGGCGGAUGCCUCCAAA [A15C G41C], the “self-cleavage kobs at 2500 uM GlcN6P” value was 1.96e-05 ± 1.1e-05 s⁻¹.
In the case of AUAAAAGCGCCAGACCUACAGAAAUGUAGUUGACGAGGAGGAGUUUUAUCGAAUUUUCGGCGGAUGCCUCCAAA [A15C G44U], the “self-cleavage kobs at 2500 uM GlcN6P” value is reported as 3.33e-05 ± 1.7e-05 s⁻¹.

Variants of: B1
Assay: self-cleavage kobs at 10000 uM GlcN6P; higher = faster cleavage; RNA array
Conditions: with glucosamine-6-phosphate
In short: as §1
AUAAAAGCGCCAGACCUACAGAAAUGUAGUUCACGAGGAGGAGGUUUAUCGACUUUUCGGCGGAUGCCUCCAAA [A15C G32C A53C] was tested, and the “self-cleavage kobs at 10000 uM GlcN6P” value was 2.11e-05 ± 1.4e-05 s⁻¹.
In the case of AUAAAAGCGCCAGACCUACAGAAAUGUAGUUGACGAGGAGGAGUUUUAUCGAAUUUUCGGCGGAUGCCUCCAAA [A15C G44U], the “self-cleavage kobs at 10000 uM GlcN6P” value is reported as 3.44e-05 ± 2.1e-05 s⁻¹.
